The other results are listed elsewhere or left out. These are further read-outs of the screen, such as a control signal, another cell line or another target. No call is given for them. Most of these compounds were active or inconclusive in the main read-out, so they are no random draw. The note in brackets gives the kind of curve behind each potency; many fits are weak.
Experiment: qHTS Assay to Find Inhibitors of Chronic Active B-Cell Receptor Signaling
Settings: ABC-DLBCL IkBa-CBG/CBR reporter, luminescence ratio (green luciferase fused to IkBa over red control in TMD8 lymphoma cells), 4 h
Method in brief: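 Compounds up to 46 uM were incubated four hours with TMD8 cells whose green CBG68 luciferase is fused to IkappaBalpha; red CBR luminescence normalised the signal, and concentration-effect curves were fitted to fusion, red and ratio data.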

[1] = measured here: CBR red luminescence, cell number
[2] = measured here: IkBa-CBG green luminescence

SMILES | AC50 [1] | AC50 [2]
O=C(NC(=S)Nc1cccc(O)c1)c1ccco1 | 10 µM [falling, partial curve, poor fit] | 
COC(=O)c1ccsc1NC(=O)CCS(=O)(=O)c1ccc(Cl)cc1 | 29.1 µM [falling, single point] | 
O=C(COc1ccc(/C=N/NC(=O)c2cccnc2)cc1)Nc1ccccc1 | 20 µM [falling, partial curve] | 
Cc1nc(N2N=C(c3ccc(Cl)cc3)CC2c2ccco2)sc1C(=O)N(C)C (configuration not stated) |  | 10 µM [falling, partial curve, poor fit]
O=C(Nc1ccc(Br)cc1)c1csc(-c2ccncc2)n1 | 22.4 µM [falling, single point] | 
CSc1nsc(N/N=C/c2ccc3c(c2)OCO3)c1C#N | 0.0891 µM [rising, full curve, poor fit] | 
COc1cc(CNc2ccc3[nH]c(=O)[nH]c3c2)ccc1OCc1ccc(F)cc1Cl | 6.31 µM [falling, single point] | 
COc1ccc(OC)c(S(=O)(=O)N2CCCCC2C(=O)N2CCN(c3ccccn3)CC2)c1 (configuration not stated) | 18.4 µM [rising, partial curve] | 
Cc1cccc(C)c1OCC(=O)Nc1ccccc1N1CCCCC1 | 17.8 µM [rising, partial curve] | 
O=C(c1ccc2c(c1)OCCO2)C1CCN(C(=O)Nc2ccc(F)cc2)CC1 | 2.51 µM [rising, partial curve, poor fit] | 
Nc1nnc(CC(=O)N2CCCCC2)s1 | 29.1 µM [rising, single point] | 
Cc1cc(C)cc(NS(=O)(=O)c2ccc3[nH]c(=O)[nH]c3c2)c1 | 4.11 µM [falling, single point] | 
Cc1cc(C(=O)NNC(=S)Nc2ccccc2C)cs1 | 2.06 µM [falling, partial curve] | 
COC(=O)C1=C(C)N(c2ccccc2)/C(=C/c2cccs2)C1=O | 35.5 µM [rising, single point] | 
CCOC(=O)/C=C/C(=O)OCC(=O)Nc1cccc(Br)c1 | 28.2 µM [rising, single point] | 
Cc1noc(C)c1COc1cccc(C(=O)Oc2ccc3c(c2)OCO3)c1 | 7.31 µM [rising, partial curve, poor fit] | 
CS(=O)(=O)NCCCNc1c(Cl)cccc1[N+](=O)[O-] | 23.1 µM [rising, single point] | 
CN1CCN(c2nc(C#N)cc(-c3ccccc3)n2)CC1 | 2.24 µM [rising, partial curve, poor fit] | 
N/C(=N\OC(=O)COc1ccc(Cl)cc1)c1cccnc1 | 0.58 µM [rising, full curve] | 
CCOC(=O)C1CCN(Cc2ccc(Cl)c(Cl)c2)CC1 | 13 µM [rising, partial curve, poor fit] | 
Cc1cc2nc(SC(C)C(=O)O)[nH]c2cc1C (configuration not stated) | 12.6 µM [rising, single point] | 
O=S(=O)(Nc1nc(-c2ccccc2)cs1)c1cc(Cl)ccc1Cl | 35.5 µM [rising, single point] | 

Arranged by SMILES length (smallest number first): some entries from above
SMILES | AC50 [1] | AC50 [2]
Cc1cc(C(=O)NNC(=S)Nc2ccccc2C)cs1 | 2.06 µM [falling, partial curve] | 
O=C(COc1ccc(/C=N/NC(=O)c2cccnc2)cc1)Nc1ccccc1 | 20 µM [falling, partial curve] | 
O=C(c1ccc2c(c1)OCCO2)C1CCN(C(=O)Nc2ccc(F)cc2)CC1 | 2.51 µM [rising, partial curve, poor fit] | 

Carrying on:

SMILES | AC50 [1] | AC50 [2]
O=C(Nc1ccccc1Cl)ON=C1c2ccccc2-c2ccccc21 | 39.8 µM [falling, partial curve, poor fit] | 
Nc1nc(SCC(=O)Nc2cccc(S(=O)(=O)N3CCCCCC3)c2)n[nH]1 | 35.5 µM [falling, single point] | 
CCc1ccc(C(=O)CN2CCSC2=N)cc1 | 4.61 µM [rising, single point] | 
COC(=O)c1ccc(Sc2ccccc2NS(=O)(=O)c2ccc(NC(C)=O)cc2)nc1 | 29.1 µM [falling, partial curve, poor fit] | 
CC(=O)Nc1nc2cc(N)ccc2s1 | 18.4 µM [rising, single point] | 
CC(C)Oc1ccc(OCCn2c(S(=O)(=O)O)nc3c(N)ncnc32)cc1 | 3.98 µM [falling, single point] | 
COc1cc2cnc(-c3ccccc3)c(-c3cc(OC)c(OC)c(OC)c3)c2cc1OC | 29.1 µM [falling, single point] | 
O=C(O)c1cccc(NC(=O)C2CCCO2)c1 (configuration not stated) | 5.17 µM [falling, single point] | 
CC(C)C(=O)Nc1cccc(C(=O)Nc2nnc(C(C)(C)C)s2)c1 | 3.98 µM [rising, partial curve, poor fit] | 
COC(=O)Nc1sc2c(c1C(=O)NCc1ccco1)CCCC2 | 17.8 µM [falling, partial curve, poor fit] | 
O=C(Cc1ccccc1)NC(=S)Nc1ccc2oc(-c3ccccc3)nc2c1 | 0.092 µM [rising, full curve, poor fit] | 
CCn1c(SCC(=O)NCc2ccco2)nnc1-c1ccc(N)cc1 | 35.5 µM [rising, single point] | 
NC(=O)N/N=C/c1ccc(-c2ccc([N+](=O)[O-])cc2)o1 | 35.5 µM [rising, single point] | 
CC12CCC(C/C1=N\OC(=O)c1ccc(F)cc1)C2(C)C (configuration not stated) | 4.11 µM [rising, full curve, poor fit] | 
COC(=O)c1ccc(C(=O)OC)c(NC(=O)CN(c2ccccc2)S(=O)(=O)N(C)C)c1 | 1.41 µM [falling, full curve, poor fit] | 
COCCCN(C(=O)CSCC(=O)Nc1cccc(C)c1)c1c(N)n(Cc2ccccc2)c(=O)[nH]c1=O | 6.51 µM [rising, single point] | 
CCNC(=O)c1sc2cc(C)ccc2c1Cl | 3.98 µM [rising, full curve] | 12.6 µM [falling, partial curve, poor fit]
CCc1ccc(NC(=O)c2nc(S(=O)(=O)Cc3ccccc3)ncc2Cl)cc1 | 3.98 µM [falling, full curve] | 
O=C(CSc1nnc(COc2ccc(Br)cc2)o1)N1CCOCC1 | 1.58 µM [falling, partial curve] | 
C=C(C)n1c(=O)n(Cc2ccc(C)cc2)c2ccccc21 | 35.5 µM [rising, single point] | 
CCOC(=O)c1[nH]c2cc(OC)c(OC)cc2c1NC(=O)C(C)N1CCN(Cc2ccccc2)CC1 (configuration not stated) | 0.13 µM [rising, partial curve, poor fit] | 
CCC(=O)NCCc1nc2cc(NC(=O)c3cccc(Br)c3)ccc2n1C | 7.08 µM [falling, partial curve] | 

Structures shown so far that have an aryl thioether with sulfur outside any ring (6):
SMILES | AC50 [1] | AC50 [2]
CSc1nsc(N/N=C/c2ccc3c(c2)OCO3)c1C#N | 0.0891 µM [rising, full curve, poor fit] | 
Cc1cc2nc(SC(C)C(=O)O)[nH]c2cc1C (configuration not stated) | 12.6 µM [rising, single point] | 
Nc1nc(SCC(=O)Nc2cccc(S(=O)(=O)N3CCCCCC3)c2)n[nH]1 | 35.5 µM [falling, single point] | 
COC(=O)c1ccc(Sc2ccccc2NS(=O)(=O)c2ccc(NC(C)=O)cc2)nc1 | 29.1 µM [falling, partial curve, poor fit] | 
CCn1c(SCC(=O)NCc2ccco2)nnc1-c1ccc(N)cc1 | 35.5 µM [rising, single point] | 
O=C(CSc1nnc(COc2ccc(Br)cc2)o1)N1CCOCC1 | 1.58 µM [falling, partial curve] | 

(continued)

SMILES | AC50 [1] | AC50 [2]
COc1cccc(NC(=O)C2CCCN2C(=O)Nc2ccccc2F)c1 (configuration not stated) | 35.5 µM [rising, single point] | 
O=[N+]([O-])c1ccc(Cl)cc1CN1CCCCCC1 | 12.6 µM [falling, partial curve] | 
Cc1ccc(/C=N/n2c(-c3cccc(Cl)c3)n[nH]c2=S)o1 | 0.316 µM [falling, full curve, poor fit] | 
O=C(Nc1ccn(Cc2c(F)c(F)cc(F)c2F)n1)c1ccc(COc2cc(Cl)ccc2Cl)o1 | 9.2 µM [rising, partial curve, poor fit] | 
COC(=O)CN(C#N)c1nc(N(C)C)nc(N(C)C)n1 | 2.82 µM [falling, partial curve, poor fit] | 
Cc1ccc(C(=O)Nc2ccc3c(c2)nc2n3CCSC2)cc1 | 35.5 µM [falling, single point] | 
COc1ccc(C2=NN(C(=O)CSc3nc4ccccc4s3)C(c3ccc(F)cc3)C2)cc1 (configuration not stated) | 14.6 µM [rising, partial curve] | 
CCOc1ccc(OCC)c(-c2c(=O)n(OCc3ccccc3Br)c3ccccc3[n+]2[O-])c1 | 35.5 µM [falling, single point] | 
Cc1nc(NC(=O)c2ccc(F)cc2)sc1C(=O)Nc1ccc2c(c1)CCC2 | 8.91 µM [falling, partial curve] | 
C=C(C)COc1ccc(-c2[nH]ncc2-c2ccccc2)c(O)c1 | 22.4 µM [rising, single point] | 
COc1cc(-c2nc(-c3ccc(-c4ccccc4)nc3OC)no2)cc(OC)c1OC | 11.2 µM [rising, partial curve, poor fit] | 
O=S(=O)(c1ccc(F)cc1)c1nc(-c2ccco2)oc1Nc1ccc(F)cc1 | 8.2 µM [falling, partial curve, poor fit] | 
COC(=O)CCNS(=O)(=O)c1ccc2ccccc2c1 | 9.2 µM [rising, partial curve, poor fit] | 
O=c1[nH]c(-c2cccnc2)nc2ccccc12 | 7.31 µM [rising, partial curve, poor fit] | 
Oc1c(CN2CCCC(C(F)(F)F)C2)cc(Cl)c2ccccc12 (configuration not stated) | 25.1 µM [falling, single point] | 
CCC1CCCCN1C(=O)c1c[nH]c2ccc(S(=O)(=O)N(C)c3ccc(Cl)cc3)cc2c1=O (configuration not stated) | 9.2 µM [falling, single point] | 
C=C(C)COc1ccc(-c2[nH]ncc2Oc2cccc(OC)c2)c(O)c1 | 2.82 µM [rising, full curve, poor fit] | 
CCC1CCCCN1C(=S)NC(=O)c1cccc([N+](=O)[O-])c1 (configuration not stated) | 0.794 µM [rising, full curve, poor fit] | 
COc1ccc(/C=C/C(=O)Nc2ccc(-n3nncc3-c3ccc(OC)c(OC)c3)cc2)cc1OC | 18.4 µM [rising, partial curve] | 18.4 µM [falling, partial curve]
O=Cc1cn(-c2ccccc2)nc1-c1ccc2c(c1)OCCO2 | 0.517 µM [rising, full curve] | 
Clc1ccc(-n2ncc3c(NC4CCCC4)ncnc32)cc1 | 7.08 µM [falling, partial curve] | 
